Experimental data from article PMC8505401.
These are yes or no findings as the source states them, for the method shown. In cells and extracts the contact can be indirect. Some binding calls cover weakened binding; strength is not graded here.

Amino acid sequences for entries named in this document (tags omitted). Residues count along the entry.
UniProt P07996, residues 19-1170: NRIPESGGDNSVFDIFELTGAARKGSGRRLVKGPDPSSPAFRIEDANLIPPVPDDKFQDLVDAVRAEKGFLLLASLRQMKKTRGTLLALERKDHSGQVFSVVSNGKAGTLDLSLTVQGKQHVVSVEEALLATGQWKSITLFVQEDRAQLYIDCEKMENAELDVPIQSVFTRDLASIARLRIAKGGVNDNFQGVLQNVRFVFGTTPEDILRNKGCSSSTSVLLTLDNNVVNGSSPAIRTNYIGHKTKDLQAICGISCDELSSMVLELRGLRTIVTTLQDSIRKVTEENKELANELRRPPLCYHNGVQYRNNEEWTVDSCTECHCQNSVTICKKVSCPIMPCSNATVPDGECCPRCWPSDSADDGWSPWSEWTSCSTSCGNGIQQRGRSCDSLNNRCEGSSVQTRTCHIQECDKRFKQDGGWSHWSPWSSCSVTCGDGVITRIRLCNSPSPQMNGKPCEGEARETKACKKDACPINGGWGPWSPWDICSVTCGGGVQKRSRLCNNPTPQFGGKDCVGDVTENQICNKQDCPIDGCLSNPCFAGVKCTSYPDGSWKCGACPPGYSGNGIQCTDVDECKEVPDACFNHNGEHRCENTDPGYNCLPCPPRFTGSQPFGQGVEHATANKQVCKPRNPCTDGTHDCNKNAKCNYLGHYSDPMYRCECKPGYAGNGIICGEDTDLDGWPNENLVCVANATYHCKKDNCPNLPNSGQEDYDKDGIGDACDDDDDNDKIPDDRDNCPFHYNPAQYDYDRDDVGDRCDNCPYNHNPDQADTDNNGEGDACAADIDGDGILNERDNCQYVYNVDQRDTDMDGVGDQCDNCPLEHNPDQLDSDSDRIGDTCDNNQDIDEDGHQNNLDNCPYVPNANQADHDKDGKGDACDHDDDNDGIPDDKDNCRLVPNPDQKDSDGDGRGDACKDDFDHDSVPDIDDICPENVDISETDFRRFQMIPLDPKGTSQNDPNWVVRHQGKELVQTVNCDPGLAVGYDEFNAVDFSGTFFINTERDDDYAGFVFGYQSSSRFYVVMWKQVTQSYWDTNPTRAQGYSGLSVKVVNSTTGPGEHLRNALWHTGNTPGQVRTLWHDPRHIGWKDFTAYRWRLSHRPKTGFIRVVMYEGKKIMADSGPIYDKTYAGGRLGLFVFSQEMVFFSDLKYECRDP
UniProt P35579: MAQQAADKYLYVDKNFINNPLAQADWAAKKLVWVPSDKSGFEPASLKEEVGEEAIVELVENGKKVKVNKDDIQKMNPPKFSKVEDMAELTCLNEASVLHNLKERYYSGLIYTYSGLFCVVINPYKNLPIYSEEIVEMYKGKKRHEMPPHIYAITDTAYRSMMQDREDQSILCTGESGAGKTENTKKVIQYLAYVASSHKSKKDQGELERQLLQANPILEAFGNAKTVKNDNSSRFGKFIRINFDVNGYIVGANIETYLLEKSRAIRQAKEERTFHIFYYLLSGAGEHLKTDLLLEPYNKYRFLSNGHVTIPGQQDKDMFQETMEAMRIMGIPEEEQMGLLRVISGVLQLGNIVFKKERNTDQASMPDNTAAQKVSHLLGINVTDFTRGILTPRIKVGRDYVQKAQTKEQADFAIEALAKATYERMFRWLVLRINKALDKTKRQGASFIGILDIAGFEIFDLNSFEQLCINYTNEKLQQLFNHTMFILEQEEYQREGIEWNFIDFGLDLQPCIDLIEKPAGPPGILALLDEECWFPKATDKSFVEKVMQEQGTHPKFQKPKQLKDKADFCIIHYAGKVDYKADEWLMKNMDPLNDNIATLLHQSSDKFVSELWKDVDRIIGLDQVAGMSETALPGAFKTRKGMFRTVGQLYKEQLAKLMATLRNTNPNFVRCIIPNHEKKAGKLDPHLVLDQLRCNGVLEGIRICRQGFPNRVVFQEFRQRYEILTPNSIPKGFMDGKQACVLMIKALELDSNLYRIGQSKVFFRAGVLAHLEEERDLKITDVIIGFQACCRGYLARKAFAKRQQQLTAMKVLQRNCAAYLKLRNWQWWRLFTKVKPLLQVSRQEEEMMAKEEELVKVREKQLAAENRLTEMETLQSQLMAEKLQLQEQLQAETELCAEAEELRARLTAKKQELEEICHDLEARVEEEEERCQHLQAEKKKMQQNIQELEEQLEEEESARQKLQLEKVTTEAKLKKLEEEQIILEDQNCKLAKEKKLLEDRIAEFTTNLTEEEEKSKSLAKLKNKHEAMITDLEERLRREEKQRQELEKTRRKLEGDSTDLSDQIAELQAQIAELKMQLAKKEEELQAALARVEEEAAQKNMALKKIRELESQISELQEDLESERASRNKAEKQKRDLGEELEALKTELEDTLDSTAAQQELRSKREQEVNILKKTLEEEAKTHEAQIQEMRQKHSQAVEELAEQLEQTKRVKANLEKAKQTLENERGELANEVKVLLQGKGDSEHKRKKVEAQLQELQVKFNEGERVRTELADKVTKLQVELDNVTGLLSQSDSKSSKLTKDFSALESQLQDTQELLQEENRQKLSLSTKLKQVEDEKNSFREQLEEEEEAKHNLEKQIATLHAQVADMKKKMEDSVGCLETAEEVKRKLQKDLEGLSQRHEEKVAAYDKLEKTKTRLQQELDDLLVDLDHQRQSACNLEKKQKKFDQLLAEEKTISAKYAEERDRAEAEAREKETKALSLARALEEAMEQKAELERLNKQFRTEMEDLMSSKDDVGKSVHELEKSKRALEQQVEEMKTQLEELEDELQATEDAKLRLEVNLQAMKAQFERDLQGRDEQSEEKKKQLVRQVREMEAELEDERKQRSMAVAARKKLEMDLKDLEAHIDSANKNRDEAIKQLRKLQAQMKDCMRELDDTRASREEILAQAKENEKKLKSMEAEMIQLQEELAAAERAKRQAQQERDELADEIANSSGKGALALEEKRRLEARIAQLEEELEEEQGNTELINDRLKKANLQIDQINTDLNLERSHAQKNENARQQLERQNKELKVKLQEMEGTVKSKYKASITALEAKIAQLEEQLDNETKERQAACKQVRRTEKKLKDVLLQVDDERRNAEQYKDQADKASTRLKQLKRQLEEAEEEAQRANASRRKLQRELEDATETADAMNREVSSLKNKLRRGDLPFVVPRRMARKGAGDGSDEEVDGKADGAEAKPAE

Target: Thrombospondin 1 (human (endogenous in N14042)) (UniProt P07996)
Experiment: co-IP; protein extracted from N14042 cells, magnetic beads with primary antibody (1:20), 4 °C overnight, western blot

Myosin heavy chain 9 (from UniProt P35579 1-1960)
binding: binds
